Values quoted from earlier work in patent publication US20110245283A1, “Methods for predicting the response to statins” (priority 2009, published 2011).
Where two headings read alike, the source gives them in different places.

Conditions: cited from earlier work

CCCCc1oc2ccccc2c1C(=O)c1cc(I)c(OCCN(CC)CC)c(I)c1 [Amiodarone]
Increased risk of toxicity or reduced statin effectiveness (with Lova): (+) | Increased risk of toxicity or reduced statin effectiveness (with Simva): (+)
